In PubChem BioAssay AID1471 (National Center for Advancing Translational Sciences (NCATS), 2008) one finds Potency and cytoprotection (ATP increase) data, which are given here for 45 molecules.

Among all 230,000 compounds or so, about 310 (0.13%) were called active. About 2% were inconclusive and are not listed. Calls come from the whole dose curve; as a rule, active = well fitted activation curve with a large enough effect; inconclusive = small, poorly fitted or top-dose-only effect; inactive = no such curve, though single readings can be large or run the other way. The entries are a selection whose mix differs from that of the whole data set. Where no call is shown, the source filed none.
Potency is the fitted concentration of half-maximal effect.

The assay in a line: qHTS Multiplex Assay to Identify Dual Action Probes in a Cell Model of Huntington: Cytoprotection (ATP).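 For cytoprotection (ATP increase): toxic huntingtin expression switched on by the ecdysone agonist tebufenozide; % of control where 0% means no effect.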 Note: nearly all actives have a fitted effect of over 45% in size. The note with it: PC12 HTT-Q103 induced, ATP luminescence, 40 h; cytoprotection (ATP increase): at 56.4 µM (top of the series) unless noted. The procedure, abridged:
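Stable PC12 Q103-GFP cells in serum-supplemented, phenol red-free DMEM; induction by tebufenozide at 100 nM final; compound dose series; cell viability quantified luminescently from ATP.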
In general terms: Quantitative high-throughput screening tests each substance at several concentrations.
Consider `Oc1ccc(Cl)cc1N=Cc1sc2ccccc2c1Cl`, for which the Potency was active: 2.24 µM.
Consider `COc1cc(/C=C/C(=O)N2CCC=CC2=O)cc(OC)c1OC`, for which the cytoprotection (ATP increase) was -339%.
`O=c1cc(-c2ccccc2Cl)oc2cccc(O)c12`: the cytoprotection (ATP increase) was -44% [at 96.6 µM].
On the same count and under the same terms, in the case of `O=C1NCC(c2ccccc2)C1C(=O)N/N=C/c1ccc(Cl)s1` (stereo not given) it was 24.3% [at 10 µM].
Take `COC[C@H]1O[C@@H](c2c(OC)cc(OC)cc2OC)[C@H](OC)[C@@H](OC)[C@@H]1OC`: the cytoprotection (ATP increase) is -40.5%.
In the case of `C=C1c2c(Cl)ccc(O)c2C(O)=C2C(=O)[C@]3(O)C(O)=C(C(N)=O)C(=O)C(N(C)C)C3C(O)C12` (stereo not given in full), the cytoprotection (ATP increase) was -193%.
The same measure, in the same setting: the figure for `CC[C@@H]1C(c2cccc(C)c2)=NN(c2ccc(Br)cc2)[C@H]1C(=O)N1CCOC1=O` is 34.3%; for `COC(=O)C1=C(C)N(Cc2ccccc2)C(=O)N[C@@H]1c1ccccc1` it is -0.169%; for `O=C1OCCN1C(=O)[C@H]1[C@H](c2ccc(Cl)cc2)C(c2cccc(Cl)c2)=NN1c1ccc(Br)cc1` it is -211% [at 40.3 µM].
Still for that read-out and setting: the figure for `O=C(Nc1nc2ccccc2s1)c1ccc(F)cc1` is 351% [at 10 µM]; for `C=C1C(=O)[C@]23[C@H](O)[C@H]1CC[C@H]2[C@@]12COC3(O)[C@H](O)[C@@H]1C(C)(C)CC[C@@H]2O` it is -351%; for `O=C(Nc1ccc(CSc2ccccc2)cc1)c1ccc(CN2CCOCC2)cc1` it is 160% [at 10 µM].
Regarding `CCn1cc(C(=O)N2CCN(c3ccccn3)CC2)c(=O)c2cc(S(=O)(=O)N(C)C3CCCCC3)ccc21`, the cytoprotection (ATP increase) is -35.5%.
With `O=C(COC(=O)C1CC1)c1c[nH]c2ccccc12`, the cytoprotection (ATP increase) came to 359% [at 10 µM].
The same measure, in the same setting: in the case of `COc1ccccc1[C@@H]1C(c2cccc(Cl)c2)=NN(c2ccc(Br)cc2)[C@H]1C(=O)N1CCOC1=O` it was -56% [at 40.3 µM]; in that of `COc1ccccc1OCC(O)COC(N)=O` (stereo not given), -51.3%; in that of `O=C(NN=C1CCCCC1)c1cc(-c2ccccc2)n[nH]1`, 180% [at 10 µM].
Still for that read-out and setting: the figure for `C[C@@H]1C(=O)OC2C[C@@]34[C@H]5C[C@@H](C(C)(C)C)[C@@]36C(O)C(=O)O[C@H]6O[C@@]4(C(=O)O5)[C@]21O` (stereo not given in full) is -177%; for `O=C(NCc1ccccc1)C1COc2ccccc2O1` (stereo not given) it is 357% [at 1.9 µM].
Take `COc1ccc([N+](=O)[O-])cc1NC(=O)C1(c2ccccc2)CCOCC1`: the cytoprotection (ATP increase) was -40.4%.
Still for that read-out and setting: in the case of `O=C(c1ccc(Cl)cc1[N+](=O)[O-])N1CCOCC1` it was -52.3%; in that of `COC(=O)c1cccc(NC(=O)CCSc2ccc(Cl)cc2)c1C`, 127%.
In the case of `Nc1ccccc1C(=O)C[C@@H](N)C(=O)O`, the cytoprotection (ATP increase) was -10.8%.
Same read-out and setting: in the case of `COc1ccc(/C=C/C(=O)c2ccc(O)cc2O)cc1OC` it was 113%.
On the same count and under the same terms, the figure for `CC(=O)[C@H]1[C@H](C#N)CC2C3CC=C4C[C@@H](O)CCC4(C)C3CCC21C` (stereo not given in full) is 9.12%; for `Cc1nnc(N2C(=O)c3oc4ccccc4c(=O)c3C2c2ccco2)s1` (stereo not given) it is 269% [at 10 µM].
Take `Cn1nccc1C(=O)Oc1ccc(/C=N/NC(=O)c2ccccc2O)cc1`: the Potency was active: 0.891 µM.
Take `CCOC(=O)C1=C(C(F)(F)F)Nc2ncnn2C1c1cccc(OC)c1OC` (stereo not given): the cytoprotection (ATP increase) was determined as 154% [at 10 µM].
Still for that read-out and setting: the figure for `CN(C)c1ccc(O)c2c1C[C@@H]1C[C@H]3C(N(C)C)C(=O)C(C(N)=O)=C(O)[C@@]3(O)C(=O)C1=C2O` (stereo not given in full) is -46.9%; for `OC[C@@H]1[C@@H](c2ccccc2)C(c2cccc(Cl)c2)=NN1c1ccccc1` it is -306%; for `O=C(CC12CC3CC(CC(C3)C1)C2)NCC(=O)OCc1cc(=O)oc2ccc3ccccc3c12` it is 353% [at 10 µM].
Same read-out and setting: the figure for `CC(=O)/C(=N/Nc1ccccc1[N+](=O)[O-])N1CCCc2ccccc21` is 252% [at 10 µM].
As to `Cc1cc(C)cc(NC(=O)OCCN2CCN(Cc3ccccc3)CCC2=O)c1`, the cytoprotection (ATP increase) was -198%.
Regarding `C=C(C)C(=O)/C=C/c1ccc(C(F)(F)F)cc1`, the cytoprotection (ATP increase) was found to be 28.7%.
Regarding `COCCN1C(=O)N[C@H](c2cccc(C(F)(F)F)c2)C(C(=O)OC)=C1C`, the cytoprotection (ATP increase) came out at 26.9%.
As for `COC(=O)C1=C(C)N=c2s/c(=C3\C(=O)Nc4ccccc43)c(=O)n2C1c1ccccc1` (stereo not given), the cytoprotection (ATP increase) was 339% [at 10 µM].
The same measure, in the same setting: in the case of `COC(=O)C1(C(=O)OC)Cc2conc2[C@H]1c1ccccc1` it was 22.4%; in that of `CC(=O)OC1CC2C(C)(C)C(=O)CC[C@]2(C)C2CC[C@]3(C)C(=CC(=O)OC3c3ccoc3)[C@]12C` (stereo not given in full), -56.5%; in that of `CN(C)CCCN(Cc1ccccc1)C(=S)Nc1cccc(C(F)(F)F)c1`, 337% [at 10 µM].
Consider `CCOc1ccc(S(=O)(=O)n2ccc(C)n2)c2ccccc12`, for which the cytoprotection (ATP increase) came to 238% [at 10 µM].
For the molecule `O=C1OCCN1C(=O)[C@H]1[C@H](c2ccc([N+](=O)[O-])cc2)C(c2ccccc2)=NN1c1ccccc1`, the cytoprotection (ATP increase) is -34.4%.
As to `CC1CCCN(C(=O)COc2ccc(NC(=O)c3cccs3)cc2)C1` (stereo not given), the cytoprotection (ATP increase) is -83.7%.
Consider `COc1ccc(C(=O)CSc2cc(C)nc3nc(C)nn23)cc1OC`, for which the Potency was active: 12.6 µM.
Take `CSc1ccc2c(c1)N(CCC1CCCCN1C)c1ccccc1S2` (stereo not given): the cytoprotection (ATP increase) is -265%.
Turning to `CC[C@H]1C(c2cccc(C)c2)=NN(c2ccccc2)[C@@H]1CO`, the cytoprotection (ATP increase) is -45.2%.
